Experimental data taken from PMC5691768, “Comparison of the Micellar Incorporation and the Intestinal Cell Uptake of Cholecalciferol, 25-Hydroxycholecalciferol and 1-α-Hydroxycholecalciferol” (Nutrients, 2017).

Assay: In vitro biopotency calculated as micellar incorporation × cell uptake
Details: mean ± SEM

Row | Structure (SMILES) | biopotency (micellar incorporation × cell uptake) [%]
1 | C=C1/C(=C\C=C2/CCC[C@]3(C)[C@@H]([C@H](C)CCCC(C)C)CC[C@@H]23)C[C@@H](O)C[C@@H]1O [1α(OH)D3, 1-α-hydroxycholecalciferol] | 13.19 ± 1.38
2 | C=C1CC[C@H](O)C/C1=C/C=C1\CCC[C@]2(C)[C@@H]([C@H](C)CCCC(C)(C)O)CC[C@@H]12 [25(OH)D3, 25-hydroxycholecalciferol] | 6.67 ± 1.21
3 | C=C1CC[C@H](O)C/C1=C/C=C1\CCC[C@]2(C)[C@@H]([C@H](C)CCCC(C)C)CC[C@@H]12 [D3, cholecalciferol] | 5.49 ± 0.55
